# Whole data set: some 1,900 compounds, median “excess over highest single agent (ExcessHSA) synergy score, 6x6 matrix” near -83, cut for the lowest 2% near -370. Some of the results follow.
# Test system: NCI-H446
# Assay: excess over highest single agent (ExcessHSA) synergy score, 6x6 matrix; higher = less synergy (more negative = stronger synergy)
# Details: 72 h; CellTiter-Glo viability
row,SMILES,excess over highest single agent
1,N=C(N)Nc1ccc(C(=O)Oc2ccc3cc(C(=N)N)ccc3c2)cc1 + Cc1sc2c(c1C)C(c1ccc(Cl)cc1)=N[C@@H](CC(=O)OC(C)(C)C)c1nnc(C)n1-2 [NCGC00250412-19],92.9
2,CCCCCCCCCCCCCCCC(=O)OC[C@@H](NC(=O)C(Cl)Cl)[C@H](O)c1ccc([N+](=O)[O-])cc1 + Cc1sc2c(c1C)C(c1ccc(Cl)cc1)=N[C@@H](CC(=O)OC(C)(C)C)c1nnc(C)n1-2 [NCGC00250412-19],174
3,CC1(C)CC(=O)c2c(C(F)(F)F)nn(-c3ccc(C(N)=O)c(N[C@H]4CC[C@H](O)CC4)c3)c2C1 + Cc1sc2c(c1C)C(c1ccc(Cl)cc1)=N[C@@H](CC(=O)OC(C)(C)C)c1nnc(C)n1-2 [NCGC00250412-19],-379
4,O=C(O)/C=C/c1ccc(O)c(O)c1 + Cc1sc2c(c1C)C(c1ccc(Cl)cc1)=N[C@@H](CC(=O)OC(C)(C)C)c1nnc(C)n1-2 [NCGC00250412-19],-109
5,CCCCc1nc2cc(/C=C/C(=O)NO)ccc2n1CCN(CC)CC + Cc1sc2c(c1C)C(c1ccc(Cl)cc1)=N[C@@H](CC(=O)OC(C)(C)C)c1nnc(C)n1-2 [NCGC00250412-19],-123
6,COc1ccc(OC)c(-c2nnc3ccc(-c4ccc(OC)c(O[C@@H]5CCOC5)c4)nn23)c1 + Cc1sc2c(c1C)C(c1ccc(Cl)cc1)=N[C@@H](CC(=O)OC(C)(C)C)c1nnc(C)n1-2 [NCGC00250412-19],-99.4
7,Oc1ccc2ccccc2c1SSc1c(O)ccc2ccccc12 + Cc1sc2c(c1C)C(c1ccc(Cl)cc1)=N[C@@H](CC(=O)OC(C)(C)C)c1nnc(C)n1-2 [NCGC00250412-19],56.9
8,COc1cc2nc(N(C)CCCNC(=O)C3CCCO3)nc(N)c2cc1OC (stereo not drawn) + Cc1sc2c(c1C)C(c1ccc(Cl)cc1)=N[C@@H](CC(=O)OC(C)(C)C)c1nnc(C)n1-2 [NCGC00250412-19],6.26
9,CCN1CCN(CC(=O)Nc2ccc(-c3cccc4c(=O)cc(N5CCOCC5)oc34)c3sc4ccccc4c23)CC1 + Cc1sc2c(c1C)C(c1ccc(Cl)cc1)=N[C@@H](CC(=O)OC(C)(C)C)c1nnc(C)n1-2 [NCGC00250412-19],-383
10,COc1ccc(-c2ccc3ncc4c(c3c2)n(-c2ccc(N3CCNCC3)c(C(F)(F)F)c2)c(=O)n4C)cn1 + Cc1sc2c(c1C)C(c1ccc(Cl)cc1)=N[C@@H](CC(=O)OC(C)(C)C)c1nnc(C)n1-2 [NCGC00250412-19],-20.2
11,CC(C)c1cc(-c2n[nH]c(=O)n2-c2ccc3c(ccn3C)c2)c(O)cc1O + Cc1sc2c(c1C)C(c1ccc(Cl)cc1)=N[C@@H](CC(=O)OC(C)(C)C)c1nnc(C)n1-2 [NCGC00250412-19],-243
12,O=C(O)C1CCCN(CCC=C(c2ccccc2)c2ccccc2)C1 (stereo not drawn) + Cc1sc2c(c1C)C(c1ccc(Cl)cc1)=N[C@@H](CC(=O)OC(C)(C)C)c1nnc(C)n1-2 [NCGC00250412-19],-163
13,CC(=O)O[C@]1(C(C)=O)CC[C@H]2[C@@H]3C=C(Cl)C4=CC(=O)[C@@H]5C[C@@H]5[C@]4(C)[C@H]3CC[C@@]21C + Cc1sc2c(c1C)C(c1ccc(Cl)cc1)=N[C@@H](CC(=O)OC(C)(C)C)c1nnc(C)n1-2 [NCGC00250412-19],36.6
14,C[C@]12CC[C@H]3[C@@H](CCC4=CC(=O)CC[C@@H]43)[C@@H]1CC[C@@H]2OC(=O)CCc1ccccc1 + Cc1sc2c(c1C)C(c1ccc(Cl)cc1)=N[C@@H](CC(=O)OC(C)(C)C)c1nnc(C)n1-2 [NCGC00250412-19],-103
15,Cn1cc(-c2cnn3c(N)c(Br)c([C@@H]4CCCNC4)nc23)cn1 + Cc1sc2c(c1C)C(c1ccc(Cl)cc1)=N[C@@H](CC(=O)OC(C)(C)C)c1nnc(C)n1-2 [NCGC00250412-19],-33.2
16,N[C@@H]1CONC1=O + Cc1sc2c(c1C)C(c1ccc(Cl)cc1)=N[C@@H](CC(=O)OC(C)(C)C)c1nnc(C)n1-2 [NCGC00250412-19],-38.4
17,C=C1C[C@@]2(O)O[C@@]3(C[C@H]2C(C)C)[C@@H](C)CC[C@@H]13 + Cc1sc2c(c1C)C(c1ccc(Cl)cc1)=N[C@@H](CC(=O)OC(C)(C)C)c1nnc(C)n1-2 [NCGC00250412-19],-34.6
18,O=C1NC(=O)/C(=C\c2ccc(-c3ccc(F)cc3)o2)S1 + Cc1sc2c(c1C)C(c1ccc(Cl)cc1)=N[C@@H](CC(=O)OC(C)(C)C)c1nnc(C)n1-2 [NCGC00250412-19],168
19,CC1=C(C(=O)O)N2C(=O)[C@@H](NC(=O)[C@H](N)C3=CCC=CC3)[C@H]2SC1 + Cc1sc2c(c1C)C(c1ccc(Cl)cc1)=N[C@@H](CC(=O)OC(C)(C)C)c1nnc(C)n1-2 [NCGC00250412-19],-68.2

row,SMILES,excess over highest single agent
1,Cc1cc(Nc2ncc3c(n2)N(C)C(=O)N(c2cc(NC(=O)c4cccc(C(F)(F)F)c4)ccc2C)C3)n(C)n1 + Cc1sc2c(c1C)C(c1ccc(Cl)cc1)=N[C@@H](CC(=O)OC(C)(C)C)c1nnc(C)n1-2 [NCGC00250412-19],-200
2,CC1(C)[C@H](C(=O)O)N2C(=O)C[C@H]2S1(=O)=O + Cc1sc2c(c1C)C(c1ccc(Cl)cc1)=N[C@@H](CC(=O)OC(C)(C)C)c1nnc(C)n1-2 [NCGC00250412-19],45.5
3,CC(=O)O[C@@H]1[C@@H](OC(C)=O)[C@@H](O)[C@H](Oc2c(-c3ccc(O)cc3)oc3cc(O)cc(O)c3c2=O)O[C@H]1C + Cc1sc2c(c1C)C(c1ccc(Cl)cc1)=N[C@@H](CC(=O)OC(C)(C)C)c1nnc(C)n1-2 [NCGC00250412-19],171
4,O=C(O)c1ccc(-c2c[nH]c3ncc(-c4ccccc4)cc23)cc1C1CCCC1 + Cc1sc2c(c1C)C(c1ccc(Cl)cc1)=N[C@@H](CC(=O)OC(C)(C)C)c1nnc(C)n1-2 [NCGC00250412-19],-50.8
5,Cc1cccc(Nc2nc(N[C@@H]3CCCC[C@@H]3N)ncc2C(N)=O)c1 + Cc1sc2c(c1C)C(c1ccc(Cl)cc1)=N[C@@H](CC(=O)OC(C)(C)C)c1nnc(C)n1-2 [NCGC00250412-19],-24
6,O=C(O)CNC(=O)c1c(O)c2ccccc2n(Cc2ccccc2)c1=O + Cc1sc2c(c1C)C(c1ccc(Cl)cc1)=N[C@@H](CC(=O)OC(C)(C)C)c1nnc(C)n1-2 [NCGC00250412-19],-90.7
7,CNS(=O)(=O)CCc1ccc2[nH]cc(C3CCN(C)CC3)c2c1 + Cc1sc2c(c1C)C(c1ccc(Cl)cc1)=N[C@@H](CC(=O)OC(C)(C)C)c1nnc(C)n1-2 [NCGC00250412-19],-72.2
8,CC(=O)Oc1ccccc1C(=O)O + Cc1sc2c(c1C)C(c1ccc(Cl)cc1)=N[C@@H](CC(=O)OC(C)(C)C)c1nnc(C)n1-2 [NCGC00250412-19],280
9,COc1ccc2ccc(=O)oc2c1CC=C(C)C + Cc1sc2c(c1C)C(c1ccc(Cl)cc1)=N[C@@H](CC(=O)OC(C)(C)C)c1nnc(C)n1-2 [NCGC00250412-19],-52.7
10,O=C(Nc1nc2cccc(-c3ccc(CN4CCS(=O)(=O)CC4)cc3)n2n1)C1CC1 + Cc1sc2c(c1C)C(c1ccc(Cl)cc1)=N[C@@H](CC(=O)OC(C)(C)C)c1nnc(C)n1-2 [NCGC00250412-19],134
11,CC1=C(/C=C/C(C)=C/C=C/C(C)=C/C(=O)O)C(C)(C)CCC1 + Cc1sc2c(c1C)C(c1ccc(Cl)cc1)=N[C@@H](CC(=O)OC(C)(C)C)c1nnc(C)n1-2 [NCGC00250412-19],-131
12,C[C@]12CC[C@H](O)CC1=CC[C@@H]1[C@@H]2CC[C@]2(C)C(n3cnc4ccccc43)=CC[C@@H]12 + Cc1sc2c(c1C)C(c1ccc(Cl)cc1)=N[C@@H](CC(=O)OC(C)(C)C)c1nnc(C)n1-2 [NCGC00250412-19],-225
13,Cc1c(C(=O)c2cccc3ccccc23)c2cccc3c2n1[C@H](CN1CCOCC1)CO3 + Cc1sc2c(c1C)C(c1ccc(Cl)cc1)=N[C@@H](CC(=O)OC(C)(C)C)c1nnc(C)n1-2 [NCGC00250412-19],-99.1
14,CC(C)=CC[C@@H](O)C1=CC(=O)c2c(O)ccc(O)c2C1=O + Cc1sc2c(c1C)C(c1ccc(Cl)cc1)=N[C@@H](CC(=O)OC(C)(C)C)c1nnc(C)n1-2 [NCGC00250412-19],-344
15,Cc1c(C)c2c(c(C)c1O)CCC(C)(COc1ccc(CC3SC(=O)NC3=O)cc1)O2 (stereo not drawn) + Cc1sc2c(c1C)C(c1ccc(Cl)cc1)=N[C@@H](CC(=O)OC(C)(C)C)c1nnc(C)n1-2 [NCGC00250412-19],-122
16,COC(=O)C1=C(C)NC(C)=C(C(=O)OCCN2CCN(C(c3ccccc3)c3ccccc3)CC2)C1c1cccc([N+](=O)[O-])c1 (stereo not drawn) + Cc1sc2c(c1C)C(c1ccc(Cl)cc1)=N[C@@H](CC(=O)OC(C)(C)C)c1nnc(C)n1-2 [NCGC00250412-19],-160
17,COC(c1ccccc1)(c1ccccc1)[C@H](Oc1nc(C)cc(C)n1)C(=O)O + Cc1sc2c(c1C)C(c1ccc(Cl)cc1)=N[C@@H](CC(=O)OC(C)(C)C)c1nnc(C)n1-2 [NCGC00250412-19],10.3
18,CC(C)(C)C(=O)Oc1ccc(S(=O)(=O)Nc2ccccc2C(=O)NCC(=O)O)cc1 + Cc1sc2c(c1C)C(c1ccc(Cl)cc1)=N[C@@H](CC(=O)OC(C)(C)C)c1nnc(C)n1-2 [NCGC00250412-19],-65
19,C[N+]1(C)[C@@H]2C[C@@H](OC(=O)C(O)(c3cccs3)c3cccs3)C[C@H]1[C@@H]1O[C@@H]12 + Cc1sc2c(c1C)C(c1ccc(Cl)cc1)=N[C@@H](CC(=O)OC(C)(C)C)c1nnc(C)n1-2 [NCGC00250412-19],-5.31

# Some values from the list:
# For excess over highest single agent, C[N+]1(C)[C@@H]2C[C@@H](OC(=O)C(O)(c3cccs3)c3cccs3)C[C@H]1[C@@H]1O[C@@H]12 + Cc1sc2c(c1C)C(c1ccc(Cl)cc1)=N[C@@H](CC(=O)OC(C)(C)C)c1nnc(C)n1-2 [NCGC00250412-19] is listed with -5.31
# For excess over highest single agent, Cc1cccc(Nc2nc(N[C@@H]3CCCC[C@@H]3N)ncc2C(N)=O)c1 + Cc1sc2c(c1C)C(c1ccc(Cl)cc1)=N[C@@H](CC(=O)OC(C)(C)C)c1nnc(C)n1-2 [NCGC00250412-19] is listed with -24

# Reference: the supplement of paper PMC10077471
